# The list shows a part of the results.
# B1: TAL6-4LysM (Trichoderma atroviride) (protein)
# chain: AADSIPSISPTGIITPTPTQSGMVSNCNKFYDVHSNDGCSAIASSQHVDLSSLYKWNPAIKTDCSGLQASVYVCIGILTTSMSTTSKLPTTTSKPSTTSKPPTGITTPTPTQSGMVKNCNKFYDVHSGDGCSAIASSQKVNLSSFYLWNPAVKTDCSGLQASVFVCIGTLTTSMSTTTSKLPTTTSKPSTTSKPPTGIITPTPTQNGMVKNCNKFYDVHSGDGCSAIASSQKVNLSSFYLWNPAVKTDCSGLQASVFVCVGTATTTTAAGITTPTPTQSGMVSGCNKFYDVHAGDGCSAIASSQKIALSSLYKWNPAVKTDCSGLQASVYICIGVGNAAAARVTGALEQKLISEEDLNSAVDHHHHHH
# Experiments:
# Test in all cases: glycan array binding signal (z-score within array); higher = stronger binding
# Conditions in all cases: glycan notation: IUPAC condensed, linker removed
# GlcNAc(b1-3)Man = biological target: GlcNAc(b1-3)Man
# Method in brief: (§1)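 Arrays were curated from the Consortium for Functional Glycomics database, 3228 in total, and kept only where the protein sequence was available. Binding is expressed as a within-array Z-score. This score was averaged across arrays of the same protein sequence at different concentrations or buffers and across linkers, and negative values can be read as non-binding.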
# [1] = biological target: GlcNAc(b1-3)[GlcNAc(b1-4)][GlcNAc(b1-6)]GlcNAc
# Method in brief: as §1
# [2] = biological target: GlcNAc(b1-3)[GlcNAc(b1-6)]Gal(b1-4)GlcNAc
# Method in brief: as §1
# [3] = biological target: GlcNAc(b1-3)[GlcNAc(b1-6)]GalNAc
# Method in brief: as §1
# [4] = biological target: GlcNAc(b1-4)Gal(b1-4)GlcNAc
# Method in brief: as §1
# GlcNAc(b1-4)GlcNAc = biological target: GlcNAc(b1-4)GlcNAc
# Method in brief: as §1
# [5] = biological target: GlcNAc(b1-4)GlcNAc(b1-4)GlcNAc
# Method in brief: as §1
# [6] = biological target: GlcNAc(b1-4)GlcNAc(b1-4)GlcNAc(b1-4)GlcNAc(b1-4)GlcNAc
# Method in brief: as §1
# [7] = biological target: GlcNAc(b1-4)GlcNAc(b1-4)GlcNAc(b1-4)GlcNAc(b1-4)GlcNAc(b1-4)GlcNAc
# Method in brief: as §1
# [8] = biological target: GlcNAc(b1-4)[GlcNAc(b1-6)]GalNAc
# Method in brief: as §1
# [9] = biological target: GlcNAc(b1-6)Gal(b1-4)GlcNAc
# Method in brief: as §1
# GlcNAc(b1-6)GalNAc = biological target: GlcNAc(b1-6)GalNAc
# Method in brief: as §1
# [10] = biological target: GlcNAc6S(b1-3)Gal(b1-4)GlcNAc
# Method in brief: as §1
# Kdn(a2-3)Gal(b1-3)GalNAc = biological target: Kdn(a2-3)Gal(b1-3)GalNAc
# Method in brief: as §1
# Kdn(a2-3)Gal(b1-3)GlcNAc = biological target: Kdn(a2-3)Gal(b1-3)GlcNAc
# Method in brief: as §1
# Kdn(a2-3)Gal(b1-4)Glc = biological target: Kdn(a2-3)Gal(b1-4)Glc
# Method in brief: as §1
# Kdn(a2-3)Gal(b1-4)GlcNAc = biological target: Kdn(a2-3)Gal(b1-4)GlcNAc
# Method in brief: as §1
# [11] = biological target: Kdn(a2-3)Gal(b1-4)[Fuc(a1-3)]GlcNAc
# Method in brief: as §1
# Kdn(a2-6)Gal(b1-4)GlcNAc = biological target: Kdn(a2-6)Gal(b1-4)GlcNAc
# Method in brief: as §1
# [12] = biological target: Man(a1-2)Man(a1-2)Man(a1-3)Man
# Method in brief: as §1
# [13] = biological target: Man(a1-2)Man(a1-2)Man(a1-6)[Man(a1-3)]Man
# Method in brief: as §1
# Man(a1-2)Man(a1-3)Man = biological target: Man(a1-2)Man(a1-3)Man
# Method in brief: as §1
# [14] = biological target: Man(a1-2)Man(a1-3)[Man(a1-2)Man(a1-6)]Man
# Method in brief: as §1
# [15] = biological target: Man(a1-2)Man(a1-3)[Man(a1-2)Man(a1-6)]Man(a1-6)[Man(a1-2)Man(a1-2)Man(a1-3)]Man
# Method in brief: as §1
# [16] = biological target: Man(a1-2)Man(a1-3)[Man(a1-2)Man(a1-6)]Man(a1-6)[Man(a1-2)Man(a1-2)Man(a1-3)]Man(b1-4)GlcNAc(b1-4)GlcNAc
# Method in brief: as §1
# [17] = biological target: Man(a1-2)Man(a1-3)[Man(a1-6)]Man(a1-6)[Man(a1-2)Man(a1-3)]Man(b1-4)GlcNAc(b1-4)GlcNAc
# Method in brief: as §1
# [18] = biological target: Man(a1-2)Man(a1-6)[Man(a1-3)]Man(a1-6)[Man(a1-2)Man(a1-2)Man(a1-3)]Man
# Method in brief: as §1
# [19] = biological target: Man(a1-2)Man(a1-6)[Man(a1-3)]Man(a1-6)[Man(a1-2)Man(a1-2)Man(a1-3)]Man(b1-4)GlcNAc(b1-4)GlcNAc
# Method in brief: as §1
# Man(a1-3)[Man(a1-6)]Man = biological target: Man(a1-3)[Man(a1-6)]Man
# Method in brief: as §1
# [20] = biological target: Man(a1-3)[Man(a1-6)]Man(a1-6)[Man(a1-2)Man(a1-3)]Man(b1-4)GlcNAc(b1-4)GlcNAc
# Method in brief: as §1
# [21] = biological target: Man(a1-3)[Man(a1-6)]Man(a1-6)[Man(a1-3)]Man
# Method in brief: as §1
# [22] = biological target: Man(a1-3)[Man(a1-6)]Man(a1-6)[Man(a1-3)]Man(b1-4)GlcNAc(b1-4)GlcNAc
# Method in brief: as §1
# [23] = biological target: Man(a1-3)[Man(a1-6)]Man(b1-4)GlcNAc(b1-4)GlcNAc
# Method in brief: as §1
# [24] = biological target: Man(a1-3)[Man(a1-6)]Man(b1-4)GlcNAc(b1-4)[Fuc(a1-6)]GlcNAc
# Method in brief: as §1
# Man(a1-6)Man = biological target: Man(a1-6)Man
# Method in brief: as §1
# Man(b1-4)GlcNAc = biological target: Man(b1-4)GlcNAc
# Method in brief: as §1
# MurNAc(b1-4)GlcNAc = biological target: MurNAc(b1-4)GlcNAc
# Method in brief: as §1
# Neu5Ac(a2-3)Gal = biological target: Neu5Ac(a2-3)Gal
# Method in brief: as §1
binder,measurement,setting,value
B1,glycan array binding signal (z-score),GlcNAc(b1-3)Man,0.386
same,glycan array binding signal (z-score),[1],0.432
same,glycan array binding signal (z-score),[2],0.229
same,glycan array binding signal (z-score),[3],-0.105
same,glycan array binding signal (z-score),[4],0.158
same,glycan array binding signal (z-score),GlcNAc(b1-4)GlcNAc,-0.601
same,glycan array binding signal (z-score),[5],-1.67
same,glycan array binding signal (z-score),[6],1.44
same,glycan array binding signal (z-score),[7],-0.051
same,glycan array binding signal (z-score),[8],0.968
same,glycan array binding signal (z-score),[9],-0.939
same,glycan array binding signal (z-score),GlcNAc(b1-6)GalNAc,-0.418
same,glycan array binding signal (z-score),[10],0.39
same,glycan array binding signal (z-score),Kdn(a2-3)Gal(b1-3)GalNAc,-1.56
same,glycan array binding signal (z-score),Kdn(a2-3)Gal(b1-3)GlcNAc,0.51
same,glycan array binding signal (z-score),Kdn(a2-3)Gal(b1-4)Glc,0.121
same,glycan array binding signal (z-score),Kdn(a2-3)Gal(b1-4)GlcNAc,0.4
same,glycan array binding signal (z-score),[11],-0.467
same,glycan array binding signal (z-score),Kdn(a2-6)Gal(b1-4)GlcNAc,-0.602
same,glycan array binding signal (z-score),[12],-0.593
same,glycan array binding signal (z-score),[13],0.189
same,glycan array binding signal (z-score),Man(a1-2)Man(a1-3)Man,-1.23
same,glycan array binding signal (z-score),[14],0.035
same,glycan array binding signal (z-score),[15],0.042
same,glycan array binding signal (z-score),[16],-0.832
same,glycan array binding signal (z-score),[17],0.6
same,glycan array binding signal (z-score),[18],1.38
same,glycan array binding signal (z-score),[19],-1.15
same,glycan array binding signal (z-score),Man(a1-3)[Man(a1-6)]Man,3.24
same,glycan array binding signal (z-score),[20],-1.28
same,glycan array binding signal (z-score),[21],-0.512
same,glycan array binding signal (z-score),[22],-0.007
same,glycan array binding signal (z-score),[23],-0.369
same,glycan array binding signal (z-score),[24],0.616
same,glycan array binding signal (z-score),Man(a1-6)Man,-1.37
same,glycan array binding signal (z-score),Man(b1-4)GlcNAc,0.015
same,glycan array binding signal (z-score),MurNAc(b1-4)GlcNAc,-0.836
same,glycan array binding signal (z-score),Neu5Ac(a2-3)Gal,-0.938

# Random excerpt: 2 entries already listed, in no set order.
binder,measurement,setting,value
B1,glycan array binding signal (z-score),[16],-0.832
same,glycan array binding signal (z-score),GlcNAc(b1-4)GlcNAc,-0.601

# Source: the supplement of paper PMC8728848
